The target of assay [1] is OsHsp70-2 (yeast two-hybrid fusion) (rice (Oryza sativa L.)). Put plainly: two-hybrid; yeast two-hybrid (Y2H); screens and tests of full-length and truncated forms.
Assay [2] deals with OsHsp40-1 (yeast two-hybrid fusion) (rice (Oryza sativa L.)). Described as above.

No constants are given. Whether binding was seen depends on the method and setting. For some of these results: Binding calls can cover weak binding; strength is not graded here. Tags and fused reporters may be left off the sequences shown.

B1: OsPPDKB (yeast two-hybrid fusion) (enzyme, UniProt Q6AVA8 1-947)
chain: MPSVSRAVCVQRASGNNGRRCRDGAAAAGRRSVVAQRARHGKPEVAIRSGSGGSARGGHCSPLRAVAAPIPTTKKRVFHFGKGKSEGNKAMKDLLGGKGANLAEMASIGLSVPPGFTVSTEACQQYQAAGKTLPAGLWEEIVEGLQWVEEYMAARLGDPARPLLLSVRSGAAVSMPGMMDTVLNLGLNDEVAAGLAAKSGDRFAYDSYRRFLDMFGNVVMDIPHALFEEKLEAMKAVKGLHNDTDLTATDLKELVAQYKDVYVEAKGEPFPSDPKKQLQLAVLAVFNSWDSPRAIKYRSINKITGLKGTAVNVQTMVFGNMGNTSGTGVLFTRNPSTGEKKLYGEFLVNAQGEDVVAGIRTPEDLDAMRDHMPEPYEELVENCKILESHYKEMMDIEFTVQENRLWMLQCRTGKRTGKGAVKIAVDMVNEGLVERRTALKMVEPGHLDQLLHPQFENPSGYKDKVIATGLPASPGAAVGQIVFTAEDAEAWHAQGKDVILVRTETSPEDVGGMHAAVGILTARGGMTSHAAVVARGWGKCCVSGCSSVRVNDASKIVVIEDKALHEGEWLSLNGSTGEVIIGKQPLCPPALSGDLETFMSWVDEVRKLKVMANADTPEDATTARQNGAEGIGLCRTEHMFFASDERIKAVRQMIMASSLELRQKALDRLLPYQRSDFEGIFRAMDGLPVTIRLLDPPLHEFLPEGHVEDMVRELCSETGAAQDDVLARVEKLSEVNPMLGFRGCRLGISYPELTEMQARAIFEAAITMTNQGIQVFPEIMVPLVGTPQELGHQVDVIRQIANKVFTDMGKTIGYKVGTMIEIPRAALVADEIAEQAEFFSFGTNDLTQMTFGYSRDDVGKFLPIYLSQGILQHDPFEVLDQRGVGELVKLATERGRKARPNLKVGICGEHGGEPLSVAFFAKAGLDYVSCSPFRVPIARLAAAQVLL
With B1, the binding entry in assay [1] is “no binding”; in assay [2], “binds”.

B2: OsGBSSI (yeast two-hybrid fusion) (enzyme, UniProt Q0DEV5 1-609)
chain: MSALTTSQLATSATGFGIADRSAPSSLLRHGFQGLKPRSPAGGDATSLSVTTSARATPKQQRSVQRGSRRFPSVVVYATGAGMNVVFVGAEMAPWSKTGGLGDVLGGLPPAMAANGHRVMVISPRYDQYKDAWDTSVVAEIKVADRYERVRFFHCYKRGVDRVFIDHPSFLEKVWGKTGEKIYGPDTGVDYKDNQMRFSLLCQAALEAPRILNLNNNPYFKGTYGEDVVFVCNDWHTGPLASYLKNNYQPNGIYRNAKVAFCIHNISYQGRFAFEDYPELNLSERFRSSFDFIDGYDTPVEGRKINWMKAGILEADRVLTVSPYYAEELISGIARGCELDNIMRLTGITGIVNGMDVSEWDPSKDKYITAKYDATTAIEAKALNKEALQAEAGLPVDRKIPLIAFIGRLEEQKGPDVMAAAIPELMQEDVQIVLLGTGKKKFEKLLKSMEEKYPGKVRAVVKFNAPLAHLIMAGADVLAVPSRFEPCGLIQLQGMRYGTPCACASTGGLVDTVIEGKTGFHMGRLSVDCKVVEPSDVKKVAATLKRAIKVVGTPAYEEMVRNCMNQDLSWKGPAKNWENVLLGLGVAGSAPGIEGDEIAPLAKENVAAP
Take B2: the values for the binding entry in assay [1] and in assay [2] were “no binding” and “binds”, respectively.

The values are drawn from PMC11759936.
